From patent US20120270297A1, “CULTURING AND GENETIC MANIPULATIONS OF THERMOTOGA SPP” (BOWLING GREEN STATE UNIVERSITY, priority 2011, published 2012)
For at least one compound, name, drawing or mass did not settle the structure.

Key:
[1] = test system: T. maritima; assay: Kanamycin sensitivity test with paper discs on SVO plates; assay type: cell-based, Thermotoga maritima; conditions: discs loaded with 50˜250 μg kanamycin, two days of incubation
[2] = test system: T. neapolitana; assay: as above; assay type: cell-based, Thermotoga neapolitana

NC[C@H]1O[C@H](O[C@H]2[C@H](O)[C@@H](O[C@H]3O[C@H](CO)[C@@H](O)[C@H](N)[C@H]3O)[C@H](N)C[C@@H]2N)[C@H](O)[C@@H](O)[C@@H]1O [kanamycin]
sensitivity to kanamycin (inhibition zones around paper discs) [1]: sensitive | inhibition around paper disc ([2]; 100 μg of kanamycin on disc): slight inhibition | inhibition around paper disc ([2]; 250 μg of kanamycin on disc): small inhibition zone
